The EC50 is the concentration that produces a half-maximal response. Broadly, the IC50 is the concentration at which inhibition is half-maximal.

Amino acid sequences for entries named in this document (tags omitted).
UniProt P31645, whole entry: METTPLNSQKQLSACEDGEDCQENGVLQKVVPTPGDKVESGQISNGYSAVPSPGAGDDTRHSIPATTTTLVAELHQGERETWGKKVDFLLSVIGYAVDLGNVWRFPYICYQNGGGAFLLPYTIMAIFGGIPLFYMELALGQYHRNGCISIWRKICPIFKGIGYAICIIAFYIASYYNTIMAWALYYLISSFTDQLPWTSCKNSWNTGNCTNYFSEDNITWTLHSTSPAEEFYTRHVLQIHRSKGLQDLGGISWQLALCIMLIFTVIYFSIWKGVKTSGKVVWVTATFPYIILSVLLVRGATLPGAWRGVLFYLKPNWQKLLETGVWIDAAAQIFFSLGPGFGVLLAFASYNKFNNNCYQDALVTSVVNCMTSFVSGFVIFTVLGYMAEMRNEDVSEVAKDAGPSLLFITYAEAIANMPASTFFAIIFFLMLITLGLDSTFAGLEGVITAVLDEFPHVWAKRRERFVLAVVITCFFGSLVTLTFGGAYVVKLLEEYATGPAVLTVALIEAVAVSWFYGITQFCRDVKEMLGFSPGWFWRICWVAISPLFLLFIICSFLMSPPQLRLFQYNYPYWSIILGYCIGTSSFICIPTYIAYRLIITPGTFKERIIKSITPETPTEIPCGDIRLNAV

Experimental findings from patent US20100048713A1, “COMPOUNDS ACTING ON THE SEROTONIN TRANSPORTER” (Aarhus Universitet, priority 2006, published 2010) are described below.

Molecules are shown by their SMILES.

In assay [1] the target is T1, hSERT (Homo sapiens, UniProt P31645).
T1 construct: expressed in transfected cells; the general 96-well protocol names Cos-1
Description: Binding assay on whole cells transfected with hSERT ([3H]-citalopram displacement). As to conditions: whole cell assay, 35 nM [3H]-citalopram, 60 min room temperature; table title: 45 min preincubation. As to the method:
The pcDNA3 plasmid vector containing the hSERT gene was used for transfection (see FIG. 6).
The 96-well plate was washed with PBSCM to remove DMEM prior to the assay. […] The plate was subsequently incubated for 60 min at room temperature. The assay was terminated by washing once with PBSCM. The amount of accumulated [^3H]-citalopram was determined by solubilizing cells in scintillant (MicroScint 20) with direct counting of plates in a Packard TopCounter. Data was analyzed by GraphPad software.

For assay [2], the target named is T1, hSERT. Description: 5-HT uptake assay with preincubation (whole cells). Format: cell-based. As to the method:
7 μl Fugene-6 was mixed with 112 μl Dulbecco's modified Eagle's medium, and incubated at room temperature for 5 minutes. 4 μg of plasmid were added and the mixture was further incubated at least 15 minutes. Cos-1 cells were trypsinized and suspended in growth media, and the plasmid/Fugene-6 mixture was added followed by dispersion into a 96-well plate.
The 96-well plate was washed with PBSCM to remove DMEM prior to the assay. 50 μl PBSCM containing increasing concentrations of allosteric ligand were added to each well, and incubated for 60 min at room temperature under moderate agitation. […] The plate was subsequently incubated for 10 min at room temperature. The assay was terminated by washing once with PBSCM. The amount of accumulated [^3H]-5-HT was determined by solubilizing cells in scintillant (MicroScint 20) with direct counting of plates in a Packard TopCounter. Data was analyzed by GraphPad software.
We tested the allosteric ligands for their ability to inhibit/activate 5-HT-uptake in the whole-cell assay after 60 minutes preincubation.

Turning to `O=C(O)c1cccc2cccc([N+](=O)[O-])c12` [TS24], the EC50 in assay [1] is over 2 mM. The “effect on [3H]-5-HT uptake after preincubation (FIG. 4)” value in assay [2] (hSERT expressing cells, 60 minutes incubation at room temperature) was “inhibits [^3H]-5-HT uptake”. In addition, 97.7 µM corresponded to half-maximal inhibition in assay [2] (whole cell assay with preincubation (title 45 min, text 60 min), 75 nM [3H]-5-HT, 10 min) (IC50).
